Some results come without the dose or concentration used.

This series concerns Purkinje-Fasern aus Hundeherzen. Kind of series: Electrophysiological studies on Purkinje fibres from dog hearts (Vmax). To be noted: Sicherheitsfaktor = Rate Faktor von Vmax.(C20CF/C20Vmax). The series is classed as cell-based, Hund. The text has this: Die antiarrhythmische Wirksamkeit der erfindungsgemäßen Verbindungen wurde sowohl anhand von elektrophysiologischen Studien an Purkinje-Fasern aus Hundeherzen sowie mit Hilfe von Ouabaininduzierten ventrikulären Tachykardien bei Hunden bestimmt. […]
Als zusätzliches Kriterium wurde der Vorzeitigkeitsindex (Prematurity-Faktor) bestimmt, der die erwünschte Wirksamkeit der erfindungsgemäßen Verbindungen bei vorzeitigen Extrasystolen charakterisiert.
On to `COc1ccc(C(=O)CCc2ccc(OC)c(OCC(O)CNC(C)(C)C)c2)cc1OC.Cl` (centres unmarked) [Beispiel 25, 1-(3,4-Dimethoxyphenyl)-3-[3′-(2-hydroxy-3-tert.-butylaminopropoxy)-4′-methoxyphenyl]-1-propanon-hydrochlorid], for which the S.F. is 3,0.
The result for `COc1ccc(CCC(=O)c2cc(OC)c(OC)c(OC)c2)cc1OCC(O)CNC(C)(C)C.Cl` (centres unmarked) [Beispiel 31, 1-(3,4,5-Trimethoxyphenyl)-3-[3′-(2-hydroxy-3-tert.-butylaminopropoxy)-4′-methoxyphenyl]-1-propanon-hydrochlorid] reads 4,1; that for `CCCNCC(O)COc1cc(CCC(=O)c2ccc(C)cc2)ccc1OC.Cl` (centres unmarked) [Beispiel 37, 1-(4-Methylphenyl)-3-[3′-(2-hydroxy-3-n-propylaminopropoxy)-4′-methoxyphenyl]-1-propanon-hydrochlorid], 2,4.
The figure for `CCC(C)(C)NCC(O)COc1cc(CCC(=O)c2ccc(OC)c(OC)c2)ccc1OC.Cl` (centres unmarked) [Beispiel 27, 1-(3,4-Dimethoxyphenyl)-3-[3′-(2-hydroxy-3-tert.-pentylaminopropoxy)-4′-methoxyphenyl]-1-propanon-hydrochlorid] is 5,4; for `CCCNCC(O)COc1cc(CCC(=O)c2c(C)cc(C)cc2C)ccc1OC.O=C(O)C(=O)O` (centres unmarked) [Beispiel 44, 1-(2,4,6-Trimethylphenyl)-3-[3′-(2-hydroxy-3-n-propylaminopropoxy)-4′-methoxyphenyl]-1-propanon-oxalat] it is 8,5; for `COc1cc(C(=O)CCc2cccc(OCC(O)CNC(C)C)c2)cc(OC)c1OC.Cl` (centres unmarked) [Beispiel 9, 1-(3,4,5-Trimethoxyphenyl)-3-[3′-(2-hydroxy-3-isopropylaminopropoxy)-phenyl]-1-propanon-hydrochlorid] it is 2,1.
For the compound `COc1ccc(CCC(=O)c2ccccc2OC)cc1OCC(O)CNC(C)(C)C.Cl` (centres unmarked) [Beispiel 35, 1-(2-Methoxyphenyl)-3-[3′-(2-hydroxy-3-tert.-butylaminopropoxy)-4′-methoxyphenyl]-1-propanon-hydrochlorid], the S.F. is recorded as 4,0.
As to `CCC(C)(C)NCC(O)COc1cccc(CCC(=O)c2cc(OC)c(OC)c(OC)c2)c1.Cl` (centres unmarked) [Beispiel 8, 1-(3,4,5-Trimethoxyphenyl)-3-[3′-(2-hydroxy-3-tert.-pentylaminopropoxy)-phenyl]-1-propanon-hydrochlorid], the S.F. is 9,4.
The result for `Cc1cc(C)c(CC(=O)Cc2cccc(OCC(O)CNC(C)(C)C)c2)c(C)c1.Cl` (centres unmarked) [Beispiel 17, 1-(2,4,6-Trimethylphenyl)-3-[3′-(2-hydroxy-3-tert.-butylaminopropoxy)-phenyl]-propanon-hydrochlorid] reads 9,9; that for `CCC(C)(C)NCC(O)COc1cc(CCC(=O)c2ccc3ccccc3c2)ccc1OC.Cl` (centres unmarked) [Beispiel 47, 1-(2-Naphthyl)-3-[3′-(2-hydroxy-3-tert.-pentylaminopropoxy)-4′-methoxyphenyl]-1-propanon-hydrochlorid], 3,4; that for `CCCNCC(O)COc1cc(CCC(=O)c2ccc3ccccc3c2)ccc1OC.Cl` (centres unmarked) [Beispiel 48, 1-(2-Napthyl)-3-[3′-(2-hydroxy-3-n-propylaminopropoxy)-4′-methoxyphenyl]-1-propanon-hydrochlorid], 11,7.
The result for `CCCNCC(O)COc1cccc(CCC(=O)c2ccc(OC)cc2)c1.Cl` (centres unmarked) [Beispiel 7, 1-(4-Methoxyphenyl)-3-[3′-(2-hydroxy-3-n-propylaminopropoxy)-phenyl]-1-propanon-hydrochlorid] reads 2,5; that for `O=C(NCC1CCCCN1)c1cc(OCC(F)(F)F)ccc1OCC(F)(F)F` (centres unmarked) [Flecainid, reference compound], 1,7; that for `COc1ccc(CCC(=O)c2ccc(C)cc2)cc1OCC(O)CNC(C)(C)C.Cl` (centres unmarked) [Beispiel 39, 1-(4-Methylphenyl)-3-[3′-(2-hydroxy-3-tert.-butylaminopropoxy)-4′-methoxyphenyl]-1-propanon-hydrochlorid], 5,0.
As for `COc1ccc(CCC(=O)c2cc(OC)c(OC)c(OC)c2)cc1OCC(O)CNC1CCCCC1.Cl` (centres unmarked) [Beispiel 32, 1-(3,4,5-Trimethoxyphenyl)-3-[3′-(2-hydroxy-3-cyclohexylaminopropoxy)-4′-methoxyphenyl]-1-propanon-hydrochlorid], the S.F. is listed as 10,2.
For `CCC(C)(C)NCC(O)COc1cc(CCC(=O)c2ccc(C)cc2)ccc1OC.Cl` (centres unmarked) [Beispiel 36, 1-(4-Methylphenyl)-3-[3′-(2-hydroxy-3-tert.-pentylaminopropoxy)-4′-methoxyphenyl]-1-propanon-hydrochlorid], the S.F. is 4,0.
As to `CCC(C)(C)NCC(O)COc1cc(CCC(=O)c2cc(OC)c(OC)c(OC)c2)ccc1OC.Cl` (centres unmarked) [Beispiel 28, 1-(3,4,5-Trimethoxyphenyl)-3-[3′-(2-hydroxy-3-tert.-pentylaminopropoxy)-4′-methoxyphenyl]-1-propanon-hydrochlorid], the S.F. was 5,0.
The result for `CCCNCC(O)COc1cc(CCC(=O)c2ccc(OC)c(OC)c2)ccc1OC.Cl` (centres unmarked) [Beispiel 22, 1-(3,4-Dimethoxyphenyl)-3-[3′-(2-hydroxy-3-n-propylaminopropoxy)-4′-methoxyphenyl]-1-propanon-hydrochlorid] reads 2,1; that for `CCC(C)(C)NCC(O)COc1cccc(CCC(=O)c2c(C)cc(C)cc2C)c1.Cl` (centres unmarked) [Beispiel 11, 1-(2,4,6-Trimethylphenyl)-3-[3′-(2-hydroxy-3-tert.-pentylaminopropoxy)-phenyl]-1-propanon-hydrochlorid], 3,5.
`COc1ccc(CCC(=O)c2cc(OC)c(OC)c(OC)c2)cc1OCC(O)CNC(C)C.Cl` (centres unmarked) [Beispiel 30, 1-(3,4,5-Trimethoxyphenyl)-3-[3′-(2-hydroxy-3-isopropylaminopropoxy)-4′-methoxyphenyl]-1-propanon-hydrochlorid]: the S.F. is listed as 2,3.
`Cc1cc(C)c(C(=O)CCc2cccc(OCC(O)CNC(C)(C)C)c2)c(C)c1.Cl` (centres unmarked) [Beispiel 14, 1-(2,4,6-Trimethylphenyl)-3-[3′-(2-hydroxy-3-tert.-butylaminopropoxy)-phenyl]-1-propanon-hydrochlorid]: the S.F. is reported as 2,5.
The figure for `COc1ccc(CCC(=O)c2ccc(C)cc2)cc1OCC(O)CN1CCCCC1.Cl` (centres unmarked) [Beispiel 40, 1-(4-Methylphenyl)-3-[3′-(2-hydroxy-3-piperidinopropoxy)-4′-methoxyphenyl]-1-propanon-hydrochlorid] is 5,1; for `Cc1cc(C)c(C(=O)CCc2cccc(OCC(O)CNC(C)C)c2)c(C)c1.Cc1cc(C)c(C(=O)CCc2cccc(OCC(O)CNC(C)C)c2)c(C)c1.O=C(O)C(=O)O` (centres unmarked) [Beispiel 15, 1-(2,4,6-Trimethylphenyl)-3-[3′-(2-hydroxy-3-isopropylaminopropoxy)-phenyl]-1-propanon-semi-oxalat] it is 7,6; for `COc1ccc(CCC(=O)c2ccc3ccccc3c2)cc1OCC(O)CNC(C)C.Cl` (centres unmarked) [Beispiel 49, 1-(2-Naphthyl)-3-[3′-(2-hydroxy-3-isopropylaminopropoxy)-4′-methoxyphenyl]-1-propanon-hydrochlorid] it is 4,6.
For `COc1ccc(C(=O)CCc2ccc(OC)c(OCC(O)CNC(C)C)c2)cc1OC.Cl` (centres unmarked) [Beispiel 23, 1-(3,4-Dimethoxyphenyl)-3-[3′-(2-hydroxy-3-isopropylaminopropoxy)-4′-methoxyphenyl]-1-propanon-hydrochlorid], the S.F. is on record as 14,0.
As for `COc1cc(C(=O)CCc2cccc(OCC(O)CNC(C)(C)C)c2)cc(OC)c1OC.Cl` (centres unmarked) [Beispiel 10, 1-(3,4,5-Trimethoxyphenyl)-3-[3′-(2-hydroxy-3-tert.-butylaminopropoxy)-phenyl]-1-propanon-hydrochlorid], the S.F. is 2,3.

Values taken from patent EP0297435A2, “Aminopropanol derivatives of 3-(3'-hydroxyphenyl)-1-propanone, process for their preparation and medicines containing these compounds” (Helopharm W. Petrik GmbH & Co.KG., priority 1987, dated 1989).
